In PubChem BioAssay AID248 (DTP/NCI, 2004):
The list is a part of this screen's results and no random one: it is rich in T/C values a quarter to a half above the control, in often repeated tests (any T/C) and in doses without a T/C. Other doses and runs of a compound stand elsewhere. T/C gives the treated animals as a percentage of the vehicle group. Some entries give survivors of the animals treated and no T/C: the source files T/C as zero there, which appears to mark a toxic dose or a test without result, not a measured value. Some doses without a T/C left all or most animals alive at the check, yet need not have been tolerated: the source hardly ever lists a survival T/C far under the control, and the zero likely stands for such cases as well. Counts of survivors are from the toxicity check (mostly the fifth day) where no day follows; animals may have died later. Schedules are NCI's codes, read here as Q, the interval in days (D) or hours (H), X, the number of doses. Some entries hold several experiments; the values are given in rising order. Where survival is the endpoint, this PubChem deposit counts one and a half times the control or more as active, and values a quarter to a half above the control carry no call in these data; other NCI protocols may use other cut-offs. Marks such as (2×) stand for listed records that agree. Some T/C values are followed by the survivors on the day toxicity was checked, most often the fifth; without a count, all were alive then.

Tested on: L1210 leukemia ip in BDF1 mice, survival T/C
Assay: NCI In Vivo Anticancer Drug Screen. Data for tumor model L1210 Leukemia (intraperitoneal) in B6D2F1 (BDF1) mice
Settings: T/C endpoint: mean survival time, higher T/C = longer survival
[1] = dose: 0.4 mg/kg/injection, schedule: Q01DX009 (ip), vehicle: other

## N=[N+]=CC(=O)CCC(NC(=O)C(CCC(=O)C=[N+]=N)NC(=O)CCC(N)C(=O)O)C(=O)O (centres undefined)
dose: 0.03 mg/kg/injection, schedule: Q01DX009 (ip), vehicle: water
  T/C: 127 % of control [5 of 6 alive]
dose: 0.04 mg/kg/injection, schedule: Q01DX009 (ip), vehicle: water
  T/C: 131 % of control
dose: 0.05 mg/kg/injection, schedule: Q01DX009 (sc), vehicle: water
  T/C: 131 % of control
dose: 0.06 mg/kg/injection, schedule: Q01DX009 (ip), vehicle: water
  T/C: 140 % of control
dose: 0.07 mg/kg/injection, schedule: Q01DX009 (ip), vehicle: other
  T/C: 126 % of control
dose: 0.08 mg/kg/injection, schedule: Q01DX009 (ip), vehicle: water
  T/C: 129 and 146 % of control
dose: 0.09 mg/kg/injection, schedule: Q01DX009 (ip), vehicle: water
  T/C: 125 % of control
dose: 0.1 mg/kg/injection, schedule: Q01DX009 (ip), vehicle: other, evaluated on day 35
  T/C: 138 % of control
dose: 0.1 mg/kg/injection, schedule: Q01DX009 (ip), vehicle: other, run until all animals had died
  T/C: 126 % of control [5 of 6 alive]
dose: 0.1 mg/kg/injection, schedule: Q01DX009 (ip), vehicle: water
  T/C: 137 % of control
dose: 0.1 mg/kg/injection, schedule: Q01DX009 (sc), vehicle: water
  T/C: 149 % of control
dose: 0.1 mg/kg/injection, schedule: Q01DX017 (ip), vehicle: saline
  T/C: 130 % of control
dose: 0.15 mg/kg/injection, schedule: Q01DX009 (sc), vehicle: water
  T/C: 132 % of control
dose: 0.16 mg/kg/injection, schedule: Q02DX008 (ip), vehicle: water
  T/C: 125 % of control
dose: 0.2 mg/kg/injection, schedule: Q01DX009 (ip), vehicle: other
  survivor count: 3 of 6
dose: 0.2 mg/kg/injection, schedule: Q01DX015 (ip), vehicle: other
  T/C: 135 % of control
dose: 0.2 mg/kg/injection, schedule: Q01DX015 (ip), vehicle: water
  T/C: 125 and 127 % of control
dose: 0.2 mg/kg/injection, schedule: Q01DX017 (ip), vehicle: saline
  T/C: 134 % of control
dose: 0.3 mg/kg/injection, schedule: Q01DX005 (iv), vehicle: other
  T/C: 144 % of control
dose: 0.31 mg/kg/injection, schedule: Q02DX008 (ip), vehicle: water
  T/C: 130 % of control
dose: 0.31 mg/kg/injection, schedule: Q02DX008 (oral), vehicle: water
  T/C: 127 % of control
[1]
  T/C: 134 % of control
  survivor count: 5 of 6
dose: 0.4 mg/kg/injection, schedule: Q02DX009 (ip), vehicle: saline
  T/C: 134 % of control
dose: 0.6 mg/kg/injection, schedule: Q01DX005 (iv), vehicle: other
  T/C: 144 % of control
dose: 0.6 mg/kg/injection, schedule: Q01DX015 (ip), vehicle: other
  T/C: 137 % of control
dose: 0.62 mg/kg/injection, schedule: Q02DX008 (ip), vehicle: other
  T/C: 145 % of control
dose: 0.62 mg/kg/injection, schedule: Q02DX008 (ip), vehicle: water
  T/C: 148 % of control
dose: 0.62 mg/kg/injection, schedule: Q02DX008 (oral), vehicle: water
  T/C: 127 % of control
dose: 0.78 mg/kg/injection, schedule: Q03HX008 (ip), vehicle: water
  T/C: 129 % of control
dose: 0.8 mg/kg/injection, schedule: Q01DX009 (ip), vehicle: other
  survivor count: 5 of 6
dose: 0.8 mg/kg/injection, schedule: Q01DX015 (ip), vehicle: other
  survivor count: 6 of 6
dose: 1.0 mg/kg/injection, schedule: Q01DX009 (ip), vehicle: other
  survivor count: 6 of 6
dose: 1.2 mg/kg/injection, schedule: Q01DX005 (iv), vehicle: other
  T/C: 128 % of control
dose: 1.25 mg/kg/injection, schedule: Q04DX003 (ip), vehicle: water
  T/C: 125 % of control
dose: 1.56 mg/kg/injection, schedule: Q03HX008 (ip), vehicle: water
  T/C: 129 % of control
dose: 1.6 mg/kg/injection, schedule: Q01DX009 (ip), vehicle: other
  survivor count: 6 of 6
dose: 1.8 mg/kg/injection, schedule: Q01DX009 (ip), vehicle: water
  survivor count: 5 of 6
dose: 2.0 mg/kg/injection, schedule: Q01DX009 (ip), vehicle: water
  survivor count: 6 of 6
dose: 2.0 mg/kg/injection, schedule: Q02DX005 (ip), vehicle: other
  T/C: 147 % of control [4 of 6 alive]
dose: 2.5 mg/kg/injection, schedule: Q01DX005 (iv), vehicle: other
  T/C: 140 % of control
dose: 2.5 mg/kg/injection, schedule: Q02DX008 (ip), vehicle: other
  T/C: 145 % of control
dose: 2.5 mg/kg/injection, schedule: Q04DX003 (ip), vehicle: other
  T/C: 130 % of control
dose: 2.5 mg/kg/injection, schedule: Q04DX003 (ip), vehicle: water
  T/C: 136 % of control
dose: 3.13 mg/kg/injection, schedule: Q03HX008 (ip), vehicle: water
  T/C: 141 % of control
dose: 5.0 mg/kg/injection, schedule: Q01DX005 (iv), vehicle: other
  survivor count: 5 of 6
dose: 5.0 mg/kg/injection, schedule: Q01DX009 (oral), vehicle: water
  survivor count: 5 of 6
dose: 5.0 mg/kg/injection, schedule: Q04DX003 (ip), vehicle: other
  T/C: 146 % of control
dose: 5.0 mg/kg/injection, schedule: Q04DX003 (ip), vehicle: water
  T/C: 142 % of control
dose: 6.25 mg/kg/injection, schedule: Q03HX008 (ip), vehicle: water
  T/C: 125 % of control
dose: 10.0 mg/kg/injection, schedule: Q01DX009 (oral), vehicle: water
  survivor count: 1 of 6
dose: 10.0 mg/kg/injection, schedule: Q07DX002 (ip), vehicle: water
  T/C: 148 % of control [5 of 6 alive]
dose: 12.5 mg/kg/injection, schedule: Q01DX001 (ip), vehicle: saline
  T/C: 129 % of control
dose: 15.0 mg/kg/injection, schedule: Q02DX008 (ip), vehicle: other
  T/C: 137 % of control
dose: 20.0 mg/kg/injection, schedule: Q02DX004 (ip), vehicle: water
  survivor count: 6 of 6
dose: 25.0 mg/kg/injection, schedule: Q01DX001 (ip), vehicle: other
  T/C: 126 % of control [5 of 6 alive]
dose: 25.0 mg/kg/injection, schedule: Q01DX001 (ip), vehicle: saline, evaluated on day 30
  T/C: 132 % of control
dose: 25.0 mg/kg/injection, schedule: Q01DX001 (ip), vehicle: saline, run until all animals had died
  T/C: 133 and 140 % of control
dose: 25.0 mg/kg/injection, schedule: Q01DX001 (ip), vehicle: water
  T/C: 126 % of control (2×)
dose: 25.0 mg/kg/injection, schedule: Q03HX024 (ip), vehicle: water
  survivor count: 5 of 10
dose: 40.0 mg/kg/injection, schedule: Q02DX004 (ip), vehicle: water
  survivor count: 5 of 6
dose: 40.0 mg/kg/injection, schedule: Q04DX003 (ip), vehicle: other
  T/C: 130 % of control
dose: 50.0 mg/kg/injection, schedule: Q01DX001 (ip), vehicle: clinical formulation
  T/C: 137 % of control
dose: 50.0 mg/kg/injection, schedule: Q01DX001 (ip), vehicle: other, evaluated on day 35
  T/C: 138 % of control
dose: 50.0 mg/kg/injection, schedule: Q01DX001 (ip), vehicle: other, run until all animals had died
  T/C: 133 and 147 % of control
dose: 50.0 mg/kg/injection, schedule: Q01DX001 (ip), vehicle: saline
  T/C: 137 and 138 % of control
dose: 50.0 mg/kg/injection, schedule: Q01DX001 (oral), vehicle: other
  T/C: 134 % of control
dose: 50.0 mg/kg/injection, schedule: Q01DX001 (sc), vehicle: other
  T/C: 134 % of control
dose: 50.0 mg/kg/injection, schedule: Q01DX009 (oral), vehicle: water
  survivor count: 0 of 6
dose: 50.0 mg/kg/injection, schedule: Q03HX024 (ip), vehicle: water
  survivor count: 6 of 10
dose: 60.0 mg/kg/injection, schedule: Q02DX004 (ip), vehicle: water
  survivor count: 5 of 6
dose: 60.0 mg/kg/injection, schedule: Q04DX003 (ip), vehicle: other
  survivor count: 3 of 6
dose: 80.0 mg/kg/injection, schedule: Q02DX004 (ip), vehicle: water
  survivor count: 5 of 6
dose: 100.0 mg/kg/injection, schedule: Q01DX001 (ip), vehicle: other, evaluated on day 35
  T/C: 136 % of control
dose: 100.0 mg/kg/injection, schedule: Q01DX001 (ip), vehicle: other, run until all animals had died
  T/C: 128 and 136 % of control
dose: 100.0 mg/kg/injection, schedule: Q01DX001 (ip), vehicle: saline, evaluated on day 30
  T/C: 148 % of control
dose: 100.0 mg/kg/injection, schedule: Q01DX001 (ip), vehicle: saline, run until all animals had died
  T/C: 147 % of control (2×)
dose: 100.0 mg/kg/injection, schedule: Q01DX001 (ip), vehicle: water
  T/C: 134 and 140 % of control
dose: 100.0 mg/kg/injection, schedule: Q01DX001 (oral), vehicle: other
  T/C: 142 % of control
dose: 100.0 mg/kg/injection, schedule: Q01DX001 (sc), vehicle: other
  T/C: 142 % of control
dose: 100.0 mg/kg/injection, schedule: Q01DX009 (oral), vehicle: water
  survivor count: 0 of 6
dose: 150.0 mg/kg/injection, schedule: Q01DX001 (ip), vehicle: water
  T/C: 134 and 148 % of control
dose: 200.0 mg/kg/injection, schedule: Q01DX001 (ip), vehicle: clinical formulation
  survivor count: 3 of 4
dose: 200.0 mg/kg/injection, schedule: Q01DX001 (ip), vehicle: other, evaluated on day 35
  T/C: 140 % of control
dose: 200.0 mg/kg/injection, schedule: Q01DX001 (ip), vehicle: other, run until all animals had died
  T/C: 149 % of control [3 of 4 alive]
dose: 200.0 mg/kg/injection, schedule: Q01DX001 (ip), vehicle: saline
  T/C: 128 % of control
dose: 200.0 mg/kg/injection, schedule: Q01DX001 (sc), vehicle: other
  T/C: 130 % of control
dose: 200.0 mg/kg/injection, schedule: Q07DX002 (ip), vehicle: other
  T/C: 146 % of control
dose: 400.0 mg/kg/injection, schedule: Q01DX001 (ip), vehicle: other
  survivor count: 3 of 4 and 6 of 6
dose: 400.0 mg/kg/injection, schedule: Q01DX001 (oral), vehicle: other
  T/C: 132 % of control
dose: 400.0 mg/kg/injection, schedule: Q01DX001 (sc), vehicle: other
  survivor count: 6 of 6
dose: 400.0 mg/kg/injection, schedule: Q07DX002 (ip), vehicle: other
  survivor count: 6 of 6
dose: 500.0 mg/kg/injection, schedule: Q01DX001 (ip), vehicle: water
  survivor count: 4 of 6
dose: 500.0 mg/kg/injection, schedule: Q07DX002 (ip), vehicle: water
  survivor count: 4 of 6
